Measured values from patent US20210393785A1, “Nucleic acid nanocarrier drug and preparation method thereof” (BAI YAO ZHI DA (BEIJING) NANOBIO TECHNOLOGY CO., LTD., priority 2018, published 2021).

Test system: SKOV3 cells
Assay: Cytotoxicity in SKOV3 cells (CellTiter-Glo)
Assay type: cell-based
Settings: treatment time 72 h

SMILES: N.N.[Cl][Pt][Cl] [Cisplatin]
- IC50: 45.7 µM
